Assay results from PMC5504286.
Results are given in words; binding and its absence hold for the method and conditions named. In cells and extracts the contact can be indirect. Some results given as binding are weak or reduced against the parent protein; the word gives no strength.

Protein sequences, listed by entry. Tags and fused reporters are not part of them. Lines headed by an entry give the natural chain unless they say otherwise; changes in a name come on top. Chains listed by the source or under a name are the forms on record and can include a tag or linker. Residues count along the entry.
FLAG-tagged SRSF1 aa11-196 wild-type (Q07955, residues 11-196): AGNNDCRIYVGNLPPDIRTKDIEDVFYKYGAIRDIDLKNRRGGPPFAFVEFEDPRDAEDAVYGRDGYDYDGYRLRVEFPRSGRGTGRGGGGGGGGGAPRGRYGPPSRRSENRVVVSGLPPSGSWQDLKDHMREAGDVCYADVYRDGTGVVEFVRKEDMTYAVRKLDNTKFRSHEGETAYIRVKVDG
FLAG-tagged SRSF1 11-196 double R117,118A mutant (SRSF1-m2) (Q07955, form named): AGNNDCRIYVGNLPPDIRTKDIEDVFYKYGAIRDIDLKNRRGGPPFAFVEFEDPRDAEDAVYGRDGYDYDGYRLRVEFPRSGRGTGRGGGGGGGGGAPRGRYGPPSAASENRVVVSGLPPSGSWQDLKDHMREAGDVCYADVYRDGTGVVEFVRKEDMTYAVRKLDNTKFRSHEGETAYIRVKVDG

Experiments:
[1] = target: FLAG-tagged SRSF1 aa11-196 wild-type (human) (UniProt Q07955); assay: co-IP; anti-FLAG M2 affinity resin on total extracts of transfected N2A cells (48 h post-transfection), 2 mg total protein in 1 ml lysis buffer (50 mM Hepes pH7.5, 150 mM NaCl, 10% glycerol, 0.5% Triton X-100, 1 mM EDTA, 1 mM DTT), 2 h at 4 °C, 5 washes, eluted with 3xFLAG peptide; blot with anti-NXF1
[2] = target: FLAG-tagged SRSF1 11-196 double R117,118A mutant (SRSF1-m2) (human) (UniProt Q07955); assay: as above

B1: endogenous NXF1 (nuclear export factor 1) (protein, UniProt Q99JX7 1-618)
chain: MADEGKSYNEHDDRVSFPQRRKKGRGPFRWKCGEGNRRSGRGGSGVQSSRFEEDDGDVAMNDPQDGPRVRYNPYTNRPNRRGDGWHDRDRIHITVRRDRAPAERGGAGTSQDGTTKNWFKITIPYGRKYDKTWLLSMIQSKCSVPFNPIEFHYENTRAHFFVEDATTASALKGVNHKIQDRENRRISIIINASAPPYTVQNELKPEQIEQLKLIMSKRYDGNQQALDLKGLRSDPDLVAQNIDVVLNRRSCMAATLRIIEENIPELLSLNLSSNRLYKLDDMSSIVQKAPNLKTLNLSGNELKTERELDKIKGLKLEELWLDRNPMCDNFGDQSSYISAIRERFPKLLRLDGHELPPPISFDVEAPTMLPPCKGSYFGTENLKSLVLRFLQQYYVIYDSGDRQGLLYAYHDGACCSLSIPYNPQNPVRKNLAEYVKDSRNVKKLKEPTQRFRLLKHTRLNVVAFLNELPKTQHDVNAFVVDISAQTSTLLCFSVNGVFKEVDGKSRDSLRAFTRTFIAVPASNSGLCIVNDELFVRNASPEEIQRAFAMSAPTPSSSPVPTLSPEQQEMLQAFSTQSGMNLEWSQKCLQDNNWDYTRSAQAFTLLKAKGEIPEVAFMK
[1]
  binding: binds
[2]
  binding: binds
